# Measured values reported in patent publication US7906486B2, “Method of treating or preventing tissue deterioration, injury or damage due to disease of mucosa” (SciClone Pharmaceuticals, Inc., priority 2007, dated 2011).
# Several values for one entry are separate records, joined by “and”; a condition that tells them apart may be missing. Identical values can stand only once. This continues a long series; more values of the same kind are listed elsewhere.
# Assay: Weights and survival (Example 2, SCI-02)
# Assay type: in vivo, Syrian Golden Hamsters
# Experimental: All animals were weighed daily and their survival recorded, in order to assess possible differences in animal weight among treatment groups as an indication for mucositis severity and/or possible toxicity resulting from the treatments.
# The mean daily percent weight change data was evaluated. The saline treated control hamsters gained an average of 44.1% of their starting weight during the study. Hamsters in the group receiving SCV-07 100 μg/kg once daily on days −1 to 20 gained an average of 49.9% of their starting weight during the study. Hamsters in the group receiving SCV-07 at 100 μg/kg twice daily on days −1 to 20 gained an average of 61.3% of their starting weight during the study. Hamsters in the group receiving SCV-07 at 1 mg/kg once daily on days −1 to 20 gained an average of 63.4% of their starting weight during the study. Hamsters in the group receiving SCV-07 at 1 mg/kg twice daily on days −1 to 20 gained an average of 69.1% of their starting weight during the study. The significance of these differences was evaluated by calculating the area-under-the-curve (AUC) for the weight gain of each animal, and then comparing the different treatment groups using a One-Way ANOVA test.
smiles,measurement,setting,value
"N[C@H](CCC(=O)N[C@@H](Cc1c[nH]c2ccccc12)C(=O)O)C(=O)O [SCV-07, γ-D-glutamyl-L-tryptophan]",Animal weight,"Group 2, day 0",87.6 and 87.2 and 81.6 and 71.9 and 86.2 and 81.9 and 82.7 and 80.4
same,Animal weight,"Group 2, day 1",86.5 and 80.5 and 81.7 and 72.8 and 85.7 and 82.6 and 83.4 and 81.2
same,Animal weight,"Group 2, day 2",92 and 86 and 75 and 91 and 88 and 90
same,Animal weight,"Group 2, day 3",96 and 94 and 86 and 77 and 93 and 87 and 91 and 88
same,Animal weight,"Group 2, day 4",98 and 97 and 87 and 79 and 94 and 90 and 93 and 89
same,Animal weight,"Group 2, day 5",102 and 99 and 88 and 79 and 95 and 90 and 92
same,Animal weight,"Group 2, day 6",105 and 101 and 90 and 85 and 98 and 92 and 97 and 93
same,Animal weight,"Group 2, day 7",107 and 103 and 90 and 84 and 97 and 94 and 99
same,Animal weight,"Group 2, day 8",108 and 105 and 94 and 85 and 99 and 100 and 98
same,Animal weight,"Group 2, day 9",114 and 111 and 95 and 88 and 101 and 105 and 98
same,Animal weight,"Group 2, day 10",117 and 110 and 97 and 91 and 105 and 100 and 106 and 103
same,Animal weight,"Group 2, day 11",109 and 103 and 90 and 88 and 98 and 95 and 101 and 99
same,Animal weight,"Group 2, day 12",120 and 114 and 98 and 97 and 109 and 104 and 107
same,Animal weight,"Group 2, day 13",118 and 110 and 95 and 97 and 104 and 102 and 106
same,Animal weight,"Group 2, day 14",124 and 116 and 98 and 101 and 110 and 106 and 111
same,Animal weight,"Group 2, day 15",123 and 116 and 99 and 98 and 110 and 102 and 111 and 113
same,Animal weight,"Group 2, day 16",130 and 121 and 104 and 108 and 115 and 105 and 118
same,Animal weight,"Group 2, day 17",122 and 117 and 98 and 101 and 109 and 100 and 111
same,Animal weight,"Group 2, day 18",123 and 110 and 107 and 100 and 108 and 98 and 95 and 114
same,Animal weight,"Group 2, day 19",130 and 124 and 105 and 108 and 115 and 109 and 119 and 120
same,Animal weight,"Group 2, day 20",124 and 117 and 98 and 102 and 108 and 103 and 111 and 114
same,Animal weight,"Group 2, day 21",124 and 117 and 98 and 102 and 107 and 103 and 110 and 114
same,Animal weight,"Group 2, day 22",135 and 134 and 100 and 112 and 115 and 110 and 120 and 121
same,Animal weight,"Group 2, day 23",142 and 130 and 108 and 120 and 122 and 118 and 128
same,Animal weight,"Group 2, day 24",135 and 124 and 102 and 112 and 116 and 110 and 121 and 126
same,Animal weight,"Group 2, day 25",142 and 131 and 108 and 120 and 117 and 119 and 128
same,Animal weight,"Group 2, day 26",137 and 127 and 116 and 104 and 118 and 115 and 129
same,Animal weight,"Group 2, day 27",136 and 125 and 101 and 114 and 110 and 113 and 124
same,Animal weight,"Group 2, day 28",142 and 131 and 107 and 120 and 121 and 117 and 118
same,Animal weight,"Group 3, day 0",77.1 and 75 and 86.6 and 80.2 and 81.7 and 82 and 80.8 and 83
same,Animal weight,"Group 3, day 1",77.1 and 75.8 and 86.1 and 79.1 and 81 and 80.3 and 80.8 and 80.7
same,Animal weight,"Group 3, day 2",80 and 82 and 93 and 86 and 87 and 88
same,Animal weight,"Group 3, day 3",83 and 81 and 94 and 89 and 90
same,Animal weight,"Group 3, day 4",79 and 81 and 92 and 84 and 85 and 89
same,Animal weight,"Group 3, day 5",84 and 82 and 98 and 86 and 89 and 93 and 94
same,Animal weight,"Group 3, day 6",91 and 85 and 102 and 93 and 92 and 101
same,Animal weight,"Group 3, day 7",91 and 85 and 105 and 95 and 94 and 100 and 102
same,Animal weight,"Group 3, day 8",85 and 81 and 99 and 89 and 87 and 88 and 93 and 95
same,Animal weight,"Group 3, day 9",98 and 90 and 113 and 100 and 99 and 107 and 110
same,Animal weight,"Group 3, day 10",100 and 92 and 115 and 103 and 102 and 107 and 113
same,Animal weight,"Group 3, day 11",99 and 91 and 117 and 102 and 100 and 108 and 113
same,Animal weight,"Group 3, day 12",101 and 92 and 120 and 104 and 115 and 118
same,Animal weight,"Group 3, day 13",97 and 88 and 116 and 101 and 99 and 100 and 108 and 117
same,Animal weight,"Group 3, day 14",103 and 94 and 121 and 105 and 106 and 113 and 120
same,Animal weight,"Group 3, day 15",104 and 94 and 127 and 106 and 105 and 114 and 121
same,Animal weight,"Group 3, day 16",107 and 98 and 134 and 113 and 109 and 110 and 119 and 126
same,Animal weight,"Group 3, day 17",108 and 100 and 133 and 110 and 106 and 112 and 119 and 128
same,Animal weight,"Group 3, day 18",111 and 101 and 138 and 115 and 109 and 114 and 123 and 130
same,Animal weight,"Group 3, day 19",111 and 102 and 136 and 112 and 109 and 114 and 123 and 131
same,Animal weight,"Group 3, day 20",114 and 105 and 140 and 110 and 118 and 126 and 133
same,Animal weight,"Group 3, day 21",117 and 108 and 141 and 116 and 112 and 118 and 129 and 137
same,Animal weight,"Group 3, day 22",110 and 105 and 136 and 112 and 120 and 127
same,Animal weight,"Group 3, day 23",122 and 110 and 145 and 117 and 114 and 134 and 140
same,Animal weight,"Group 3, day 24",115 and 112 and 147 and 119 and 120 and 124 and 136 and 142
same,Animal weight,"Group 3, day 25",126 and 114 and 150 and 121 and 116 and 124 and 137 and 143
same,Animal weight,"Group 3, day 26",122 and 111 and 145 and 119 and 114 and 135 and 142
same,Animal weight,"Group 3, day 27",129 and 117 and 153 and 123 and 119 and 141 and 147
same,Animal weight,"Group 3, day 28",127 and 117 and 151 and 120 and 118 and 126 and 139 and 146
same,Animal weight,"Group 4, day 0",85.2 and 88.7 and 83.4 and 72.4 and 72.3 and 90.6 and 75.9 and 84.8
same,Animal weight,"Group 4, day 1",84.3 and 89.4 and 84.9 and 75.7 and 75.8 and 94 and 77.5 and 86.4
same,Animal weight,"Group 4, day 2",86 and 94 and 77 and 96 and 79 and 91
same,Animal weight,"Group 4, day 3",89 and 98 and 90 and 79 and 78 and 99 and 82 and 95
same,Animal weight,"Group 4, day 4",93 and 100 and 92 and 81 and 83 and 101 and 84 and 99
same,Animal weight,"Group 4, day 5",92 and 101 and 93 and 81 and 82 and 104 and 85 and 98
same,Animal weight,"Group 4, day 6",98 and 104 and 97 and 85 and 87 and 109 and 89 and 103
same,Animal weight,"Group 4, day 7",98 and 107 and 97 and 85 and 91 and 111 and 104
same,Animal weight,"Group 4, day 8",100 and 108 and 98 and 86 and 91 and 109 and 102
same,Animal weight,"Group 4, day 9",106 and 113 and 102 and 90 and 99 and 115 and 98 and 109
same,Animal weight,"Group 4, day 10",105 and 114 and 103 and 92 and 99 and 116 and 111
same,Animal weight,"Group 4, day 11",107 and 116 and 105 and 93 and 102 and 115 and 100 and 111
same,Animal weight,"Group 4, day 12",109 and 119 and 105 and 94 and 103 and 117 and 116
same,Animal weight,"Group 4, day 13",108 and 118 and 105 and 94 and 104 and 103 and 116
same,Animal weight,"Group 4, day 14",110 and 121 and 108 and 93 and 105 and 120 and 118
same,Animal weight,"Group 4, day 15",107 and 120 and 105 and 91 and 106 and 116
same,Animal weight,"Group 4, day 16",113 and 126 and 111 and 93 and 110 and 125 and 112 and 122
same,Animal weight,"Group 4, day 17",114 and 127 and 94 and 126 and 112 and 123
same,Animal weight,"Group 4, day 18",116 and 125 and 115 and 96 and 111 and 120 and 114 and 124
same,Animal weight,"Group 4, day 19",116 and 130 and 115 and 95 and 129 and 122
same,Animal weight,"Group 4, day 20",120 and 133 and 118 and 98 and 119 and 131 and 117 and 124
same,Animal weight,"Group 4, day 21",119 and 136 and 122 and 99 and 121 and 133 and 118 and 128
same,Animal weight,"Group 4, day 22",113 and 136 and 114 and 99 and 112 and 124 and 119
same,Animal weight,"Group 4, day 23",123 and 139 and 126 and 104 and 125 and 134 and 120 and 130
same,Animal weight,"Group 4, day 24",126 and 142 and 127 and 103 and 135 and 123 and 131
same,Animal weight,"Group 4, day 25",126 and 142 and 129 and 105 and 138 and 127 and 133
same,Animal weight,"Group 4, day 26",126 and 144 and 130 and 105 and 138 and 127 and 131
same,Animal weight,"Group 4, day 27",129 and 145 and 132 and 107 and 130 and 138 and 128
same,Animal weight,"Group 4, day 28",133 and 147 and 135 and 111 and 134 and 139 and 131
same,Animal weight,"Group 5, day 0",90.1 and 76.5 and 87.5 and 81 and 74.7 and 79.8 and 77.3 and 80.1
same,Animal weight,"Group 5, day 1",87.6 and 77.3 and 89.6 and 82.8 and 74.2 and 81.8 and 76.6 and 78.8
same,Animal weight,"Group 5, day 2",89 and 78 and 91 and 84 and 83 and 81 and 75 and 80
same,Animal weight,"Group 5, day 3",93 and 79 and 95 and 89 and 87 and 85 and 83
same,Animal weight,"Group 5, day 4",94 and 81 and 98 and 96 and 90 and 87 and 86
same,Animal weight,"Group 5, day 5",98 and 81 and 93 and 85 and 90 and 88 and 86
same,Animal weight,"Group 5, day 6",106 and 83 and 105 and 101 and 87 and 94 and 90 and 95
same,Animal weight,"Group 5, day 7",106 and 86 and 100 and 88 and 96 and 92
same,Animal weight,"Group 5, day 8",107 and 87 and 109 and 101 and 91 and 98 and 94 and 97
same,Animal weight,"Group 5, day 9",112 and 90 and 114 and 106 and 95 and 104 and 97 and 99
same,Animal weight,"Group 5, day 10",113 and 91 and 116 and 107 and 97 and 104 and 99 and 102
same,Animal weight,"Group 5, day 11",113 and 90 and 118 and 107 and 98 and 105 and 99 and 100
same,Animal weight,"Group 5, day 12",117 and 92 and 122 and 110 and 99 and 109 and 102
same,Animal weight,"Group 5, day 13",118 and 93 and 119 and 113 and 99 and 108 and 103 and 102
same,Animal weight,"Group 5, day 14",119 and 117 and 95 and 122 and 100 and 112 and 106 and 104
same,Animal weight,"Group 5, day 15",118 and 99 and 120 and 114 and 112 and 107 and 104
same,Animal weight,"Group 5, day 16",125 and 103 and 127 and 120 and 105 and 115 and 112 and 108
same,Animal weight,"Group 5, day 17",125 and 104 and 127 and 122 and 118 and 113 and 107
same,Animal weight,"Group 5, day 18",128 and 106 and 129 and 125 and 120 and 115 and 109
same,Animal weight,"Group 5, day 19",131 and 106 and 130 and 124 and 107 and 121 and 115 and 111
same,Animal weight,"Group 5, day 20",130 and 107 and 127 and 109 and 121 and 117 and 111
same,Animal weight,"Group 5, day 21",136 and 109 and 133 and 132 and 111 and 124 and 120 and 114
same,Animal weight,"Group 5, day 22",134 and 113 and 133 and 131 and 110 and 124 and 120
same,Animal weight,"Group 5, day 23",137 and 115 and 136 and 129 and 125 and 117
same,Animal weight,"Group 5, day 24",135 and 113 and 112 and 129 and 127 and 116
same,Animal weight,"Group 5, day 25",142 and 120 and 141 and 140 and 118 and 132 and 131 and 121
same,Animal weight,"Group 5, day 26",145 and 117 and 141 and 120 and 133 and 132 and 123
same,Animal weight,"Group 5, day 27",148 and 121 and 144 and 124 and 137 and 133
same,Animal weight,"Group 5, day 28",150 and 123 and 147 and 126 and 139 and 137 and 125
